No constants are given. Whether binding was seen depends on the method and setting.
Target: HA-tagged full-length AKAP12 (1-1782) (human) (UniProt Q02952)
Assay: SDS-PAGE in 8 M urea; whole-cell lysates of HEK293 cells treated with and resolved on SDS-PAGE in the presence of 8 M urea; immunoblot with anti-HA or anti-AKAP12

- binding: no binding (condition: with 8 M urea)
B1: HA-tagged full-length AKAP12 (1-1782) (natural protein, human, UniProt Q02952 1-1782, looked up)
chain: MGAGSSTEQRSPEQPPEGSSTPAEPEPSGGGPSAEAAPDTTADPAIAASDPATKLLQKNGQLSTINGVAEQDELSLQEGDLNGQKGALNGQGALNSQEEEEVIVTEVGQRDSEDVSKRDSDKEMATKSAVVHDITDDGQEETPEIIEQIPSSESNLEELTQPTESQANDIGFKKVFKFVGFKFTVKKDKTEKPDTVQLLTVKKDEGEGAAGAGDHKDPSLGAGEAASKESEPKQSTEKPEETLKREQSHAEISPPAESGQAVEECKEEGEEKQEKEPSKSAESPTSPVTSETGSTFKKFFTQGWAGWRKKTSFRKPKEDEVEASEKKKEQEPEKVDTEEDGKAEVASEKLTASEQAHPQEPAESAHEPRLSAEYEKVELPSEEQVSGSQGPSEEKPAPLATEVFDEKIEVHQEEVVAEVHVSTVEERTEEQKTEVEETAGSVPAEELVEMDAEPQEAEPAKELVKLKETCVSGEDPTQGADLSPDEKVLSKPPEGVVSEVEMLSSQERMKVQGSPLKKLFTSTGLKKLSGKKQKGKRGGGDEESGEHTQVPADSPDSQEEQKGESSASSPEEPEEITCLEKGLAEVQQDGEAEEGATSDGEKKREGVTPWASFKKMVTPKKRVRRPSESDKEDELDKVKSATLSSTESTASEMQEEMKGSVEEPKPEEPKRKVDTSVSWEALICVGSSKKRARRGSSSDEEGGPKAMGGDHQKADEAGKDKETGTDGILAGSQEHDPGQGSSSPEQAGSPTEGEGVSTWESFKRLVTPRKKSKSKLEEKSEDSIAGSGVEHSTPDTEPGKEESWVSIKKFIPGRRKKRPDGKQEQAPVEDAGPTGANEDDSDVPAVVPLSEYDAVEREKMEAQQAQKSAEQPEQKAATEVSKELSESQVHMMAAAVADGTRAATIIEERSPSWISASVTEPLEQVEAEAALLTEEVLEREVIAEEEPPTVTEPLPENREARGDTVVSEAELTPEAVTAAETAGPLGAEEGTEASAAEETTEMVSAVSQLTDSPDTTEEATPVQEVEGGVPDIEEQERRTQEVLQAVAEKVKEESQLPGTGGPEDVLQPVQRAEAERPEEQAEASGLKKETDVVLKVDAQEAKTEPFTQGKVVGQTTPESFEKAPQVTESIESSELVTTCQAETLAGVKSQEMVMEQAIPPDSVETPTDSETDGSTPVADFDAPGTTQKDEIVEIHEENEVASGTQSGGTEAEAVPAQKERPPAPSSFVFQEETKEQSKMEDTLEHTDKEVSVETVSILSKTEGTQEADQYADEKTKDVPFFEGLEGSIDTGITVSREKVTEVALKGEGTEEAECKKDDALELQSHAKSPPSPVEREMVVQVEREKTEAEPTHVNEEKLEHETAVTVSEEVSKQLLQTVNVPIIDGAKEVSSLEGSPPPCLGQEEAVCTKIQVQSSEASFTLTAAAEEEKVLGETANILETGETLEPAGAHLVLEEKSSEKNEDFAAHPGEDAVPTGPDCQAKSTPVIVSATTKKGLSSDLEGEKTTSLKWKSDEVDEQVACQEVKVSVAIEDLEPENGILELETKSSKLVQNIIQTAVDQFVRTEETATEMLTSELQTQAHVIKADSQDAGQETEKEGEEPQASAQDETPITSAKEESESTAVGQAHSDISKDMSEASEKTMTVEVEGSTVNDQQLEEVVLPSEEEGGGAGTKSVPEDDGHALLAERIEKSLVEPKEDEKGDDVDDPENQNSALADTDASGGLTKESPDTNGPKQKEKEDAQEVELQEGKVHSESDKAITPQAQEELQKQERESAKSELTES
notes: AKAP12, human, full length (1-1782); also called HA-AKAP12; HA-tagged AKAP12; source: HEK293, transfected (pcDNA3.1), in whole-cell lysate

From publication PMC3113324, “AKAP5 and AKAP12 Form Homo-oligomers” (Journal of Molecular Signaling, 2011)
